Protein sequences, listed by entry. Tags and fused reporters are not part of them.
UniProt Q03164, whole entry, looked up: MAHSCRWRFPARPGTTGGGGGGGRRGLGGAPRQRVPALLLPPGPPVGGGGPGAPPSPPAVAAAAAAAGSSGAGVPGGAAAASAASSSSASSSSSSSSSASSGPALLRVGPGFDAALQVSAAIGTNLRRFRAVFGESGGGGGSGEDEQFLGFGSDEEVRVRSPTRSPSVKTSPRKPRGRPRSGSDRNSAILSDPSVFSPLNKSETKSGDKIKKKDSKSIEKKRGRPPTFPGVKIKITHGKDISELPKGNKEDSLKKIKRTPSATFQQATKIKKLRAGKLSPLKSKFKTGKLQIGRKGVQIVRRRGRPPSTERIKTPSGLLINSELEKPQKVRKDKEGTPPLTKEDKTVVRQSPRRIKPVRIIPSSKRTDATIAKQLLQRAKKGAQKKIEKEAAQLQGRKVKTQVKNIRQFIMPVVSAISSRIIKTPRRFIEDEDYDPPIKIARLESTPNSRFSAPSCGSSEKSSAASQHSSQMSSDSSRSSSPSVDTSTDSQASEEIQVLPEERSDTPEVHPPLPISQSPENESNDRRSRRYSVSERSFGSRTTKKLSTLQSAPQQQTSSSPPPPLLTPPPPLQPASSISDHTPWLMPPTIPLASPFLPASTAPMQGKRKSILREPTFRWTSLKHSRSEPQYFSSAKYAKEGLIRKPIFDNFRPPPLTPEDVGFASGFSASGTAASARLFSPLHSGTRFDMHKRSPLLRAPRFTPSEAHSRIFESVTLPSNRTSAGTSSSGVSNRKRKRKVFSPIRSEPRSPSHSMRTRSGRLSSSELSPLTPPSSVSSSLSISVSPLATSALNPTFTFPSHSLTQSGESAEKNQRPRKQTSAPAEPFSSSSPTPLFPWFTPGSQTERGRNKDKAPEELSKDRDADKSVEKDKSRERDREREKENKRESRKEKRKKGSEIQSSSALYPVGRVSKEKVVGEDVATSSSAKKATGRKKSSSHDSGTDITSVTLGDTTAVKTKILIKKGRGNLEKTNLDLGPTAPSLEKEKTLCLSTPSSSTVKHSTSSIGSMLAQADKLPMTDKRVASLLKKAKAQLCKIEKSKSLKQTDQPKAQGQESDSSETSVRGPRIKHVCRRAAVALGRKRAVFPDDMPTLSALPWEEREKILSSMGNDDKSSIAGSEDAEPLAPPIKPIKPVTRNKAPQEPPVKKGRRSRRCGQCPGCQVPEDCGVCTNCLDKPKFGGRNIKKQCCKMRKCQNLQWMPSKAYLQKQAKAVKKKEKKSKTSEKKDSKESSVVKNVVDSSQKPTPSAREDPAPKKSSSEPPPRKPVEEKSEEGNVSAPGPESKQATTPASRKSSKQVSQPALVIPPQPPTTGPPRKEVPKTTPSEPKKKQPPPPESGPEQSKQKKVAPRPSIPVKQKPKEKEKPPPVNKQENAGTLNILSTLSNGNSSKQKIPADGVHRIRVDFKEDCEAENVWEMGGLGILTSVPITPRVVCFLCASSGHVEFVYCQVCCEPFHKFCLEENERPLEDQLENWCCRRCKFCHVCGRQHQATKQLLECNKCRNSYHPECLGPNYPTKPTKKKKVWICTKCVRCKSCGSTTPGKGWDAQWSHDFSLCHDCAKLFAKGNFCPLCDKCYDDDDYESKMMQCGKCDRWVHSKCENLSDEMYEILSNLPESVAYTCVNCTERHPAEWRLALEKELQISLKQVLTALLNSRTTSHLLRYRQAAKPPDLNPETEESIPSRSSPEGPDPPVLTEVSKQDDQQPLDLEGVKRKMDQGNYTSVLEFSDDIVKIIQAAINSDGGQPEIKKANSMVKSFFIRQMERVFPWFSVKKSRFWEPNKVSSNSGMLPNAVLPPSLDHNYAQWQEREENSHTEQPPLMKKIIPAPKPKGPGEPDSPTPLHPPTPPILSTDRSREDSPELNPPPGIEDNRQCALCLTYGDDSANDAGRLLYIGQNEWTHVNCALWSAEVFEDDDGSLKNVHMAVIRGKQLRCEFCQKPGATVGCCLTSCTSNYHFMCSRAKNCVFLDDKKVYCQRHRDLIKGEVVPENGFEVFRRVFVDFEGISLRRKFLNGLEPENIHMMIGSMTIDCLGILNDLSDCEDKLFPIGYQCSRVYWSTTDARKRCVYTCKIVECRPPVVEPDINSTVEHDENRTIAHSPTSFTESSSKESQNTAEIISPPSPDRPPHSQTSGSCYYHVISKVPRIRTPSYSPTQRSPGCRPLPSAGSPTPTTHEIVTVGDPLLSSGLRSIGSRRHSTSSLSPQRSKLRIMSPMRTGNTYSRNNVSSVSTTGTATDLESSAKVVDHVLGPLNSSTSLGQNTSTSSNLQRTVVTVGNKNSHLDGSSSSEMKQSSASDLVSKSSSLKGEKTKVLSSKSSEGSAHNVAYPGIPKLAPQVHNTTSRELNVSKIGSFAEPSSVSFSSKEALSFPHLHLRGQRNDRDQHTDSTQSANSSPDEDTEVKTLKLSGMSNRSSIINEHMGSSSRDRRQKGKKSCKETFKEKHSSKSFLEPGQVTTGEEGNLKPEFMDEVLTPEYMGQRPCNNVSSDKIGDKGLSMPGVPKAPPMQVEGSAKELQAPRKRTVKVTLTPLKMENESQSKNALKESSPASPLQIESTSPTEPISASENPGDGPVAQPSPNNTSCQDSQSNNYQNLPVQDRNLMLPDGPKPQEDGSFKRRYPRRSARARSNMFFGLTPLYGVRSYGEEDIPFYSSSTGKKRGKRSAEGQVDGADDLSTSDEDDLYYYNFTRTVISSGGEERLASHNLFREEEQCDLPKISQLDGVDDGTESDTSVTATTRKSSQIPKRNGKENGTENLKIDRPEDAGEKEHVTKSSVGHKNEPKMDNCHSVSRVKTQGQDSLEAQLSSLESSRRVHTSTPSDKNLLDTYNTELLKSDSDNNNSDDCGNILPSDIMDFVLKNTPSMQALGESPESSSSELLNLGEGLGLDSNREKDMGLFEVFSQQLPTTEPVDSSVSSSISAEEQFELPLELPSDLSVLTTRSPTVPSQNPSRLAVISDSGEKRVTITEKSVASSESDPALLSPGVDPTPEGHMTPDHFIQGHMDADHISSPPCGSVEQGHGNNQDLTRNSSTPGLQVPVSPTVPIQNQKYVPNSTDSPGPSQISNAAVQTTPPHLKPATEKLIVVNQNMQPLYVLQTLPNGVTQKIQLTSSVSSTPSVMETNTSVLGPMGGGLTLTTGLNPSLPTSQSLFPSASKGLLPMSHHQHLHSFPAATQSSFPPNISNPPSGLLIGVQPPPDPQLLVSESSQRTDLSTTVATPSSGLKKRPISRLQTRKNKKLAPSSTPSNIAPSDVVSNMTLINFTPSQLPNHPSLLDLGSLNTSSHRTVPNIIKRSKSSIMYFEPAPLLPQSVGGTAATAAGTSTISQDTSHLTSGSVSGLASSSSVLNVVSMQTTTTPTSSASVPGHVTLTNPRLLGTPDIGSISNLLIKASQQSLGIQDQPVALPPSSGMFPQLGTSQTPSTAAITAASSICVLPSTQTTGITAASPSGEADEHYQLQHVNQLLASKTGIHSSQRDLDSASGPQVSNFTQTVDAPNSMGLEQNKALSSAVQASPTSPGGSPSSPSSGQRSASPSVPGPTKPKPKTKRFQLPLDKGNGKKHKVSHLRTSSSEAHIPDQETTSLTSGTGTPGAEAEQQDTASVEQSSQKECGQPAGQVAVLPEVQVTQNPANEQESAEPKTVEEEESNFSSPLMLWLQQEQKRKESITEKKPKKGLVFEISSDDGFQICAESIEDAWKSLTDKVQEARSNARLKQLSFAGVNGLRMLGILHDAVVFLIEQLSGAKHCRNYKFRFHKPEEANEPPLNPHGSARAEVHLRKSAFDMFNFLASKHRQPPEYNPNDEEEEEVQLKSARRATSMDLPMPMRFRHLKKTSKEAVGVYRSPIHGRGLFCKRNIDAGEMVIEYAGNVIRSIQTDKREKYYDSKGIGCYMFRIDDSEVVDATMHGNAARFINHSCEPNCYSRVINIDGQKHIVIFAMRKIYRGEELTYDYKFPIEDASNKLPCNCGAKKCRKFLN

Screen size: about 290,000 compounds; about 110 (0.038%) were called active. The inconclusive results got no clear call from the source; some entries with a clear call stand among them for comparison. Calls follow the shape of the dose curve; as a rule, active = well fitted inhibition curve with a large enough effect in the polarisation, with a control signal flat (not every such curve was filed as active); inconclusive = small, poorly fitted or top-dose-only effect, or effect the other way, or a change in a side signal; inactive = no such curve, though single readings can be large or run the other way; the % refers to the polarisation. Potencies beside an inconclusive call are fits to weak or partial responses and may not hold up. A note “side channel” means that the fit belongs to a control or component signal, not to the main read-out.
The compounds below were run against Histone-lysine N-methyltransferase 2A (Homo sapiens) (UniProt Q03164) (assay: qHTS Fluorescence Polarization Assay for Inhibitors of MLL CXXC domain - DNA interaction). Settings: MLL-CXXC / FITC-HOXA9 DNA fluorescence polarization; series mostly up to 115 µM.
In short: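 Steps: dispense CXXC domain solution (7 uM) → pin compounds or unlabeled HOX-A9 DNA control → 5 min ambient → add FLSN-HOX-A9 solution (50 nM) → spin → 30 min ambient → fluorescence polarization. Tris pH 7.5/NaCl/DTT/BSA buffer.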
With `CC(C)Cn1[nH]c2c3c(ccc2c1=O)C(=O)c1ccccc1C3=O` the Potency was inconclusive: 22.4 µM [quencher, side channel, partial curve].
With `CNCc1c(OCc2ccccc2F)ccc2ccccc12` the Potency was inconclusive: 7.08 µM [inhibitor, full curve].
For `COc1ccc(C(=O)NCC(=O)OCC(=O)Nc2sccc2C#N)cc1OC`, the Potency was “inactive”.
`COc1ccc2[nH]c(C(=O)N/N=C/c3ccc(O)cc3O)cc2c1` was tested, and the Potency was inconclusive: 70.8 µM [fluorescent, side channel, single point].
`COc1cc2c(cc1OC)CN(CC(=O)Nc1ccc(F)cc1)CC2` was tested, and the Potency was inconclusive: 39.8 µM [fluorescent, side channel, partial curve].
With `COc1cc(NC(=O)CSCC(=O)Nc2cc(OC)cc(OC)c2)cc(OC)c1` the Potency was “inactive”.
In the case of `CCc1ccc(CN(C)C(=O)c2cc(COc3ccc(OC)cc3Cl)on2)nc1`, the Potency is reported as inconclusive: 14.1 µM [fluorescent, side channel, single point].
`Cc1ccc2c(N)[nH]nc2n1` was tested, and the Potency was inconclusive: 14.1 µM [fluorescent, side channel, single point].
For `Cc1ccc([N+](=O)[O-])cc1N/C=C1\CCCCC1=O`, the Potency was inconclusive: 12.6 µM [fluorescent, side channel, full curve].
In the case of `Cc1cc(=O)oc2cc(OCc3cc4c(cc3Cl)OCO4)ccc12`, the Potency is reported as “inactive”.
With `CCC(C)c1ccccc1N1CC(C(=O)Nc2ccccc2N2CCCC2)CC1=O` (centres undefined) the Potency was inconclusive: 11.2 µM [fluorescent, side channel, single point].
`O=C1/C(=C\c2cc([N+](=O)[O-])ccc2O)SC(=S)N1Cc1ccc(Cl)cc1` was tested, and the Potency was inconclusive: 5.01 µM [fluorescent, side channel, partial curve].
With `O=C(O)COC(=O)Cc1ccccc1Nc1c(Cl)cccc1Cl` the Potency was inconclusive: 3.55 µM [inhibitor, full curve, poor fit].
In the case of `Cc1cc(N2CCCC2)ccc1/C=C1\NC(=S)N(C)C1=O`, the Potency is reported as inconclusive: 17.8 µM [fluorescent, side channel, partial curve].
In the case of `Cc1ccc(Cn2c(N)nc3ccccc32)cc1`, the Potency is reported as “inactive”.
`CC(=O)Nc1ccc(NC2=C/C(=N/S(=O)(=O)c3cccs3)c3ccccc3C2=O)cc1` was tested, and the Potency was inconclusive: 17.8 µM [inhibitor, partial curve].
In the case of `COC(=O)c1ccc(NC(=O)C(=O)NCC2CCCO2)cc1` (centres undefined), the Potency is reported as inconclusive: 1.26 µM [quencher, side channel, partial curve, poor fit].
`O=C(CN1C(=O)c2ccccc2S1(=O)=O)c1ccc(OC(F)F)cc1` was tested, and the Potency was inconclusive: 11.2 µM [fluorescent, side channel, single point].
For `COc1c(Cl)cc(Cl)cc1CNCCO`, the Potency was inconclusive: 11.2 µM [fluorescent, side channel, single point].
For `COC(=O)CSc1nnc(CNS(=O)(=O)c2ccc(C)cc2)n1C`, the Potency was “inactive”.
In the case of `COc1cc(-c2nnn(CC(=O)N3CCOCC3)n2)cc(OC)c1OC`, the Potency is reported as “inactive”.
`c1ccc(C[C@H]2CN=C(Nc3ccccc3)N2CCCC2CCCC2)cc1` was tested, and the Potency was inconclusive: 31.6 µM [quencher, side channel, partial curve].
For `COc1cc(/C=C(\C#N)C(=O)NC2CCCCC2)ccc1OCc1ccc(C(=O)O)cc1`, the Potency was inconclusive: 15.8 µM [inhibitor, single point].
In the case of `O=C(OCCN1C(=O)c2cccc3c(N4CCOCC4)ccc(c23)C1=O)c1ccc(Cl)cc1`, the Potency is reported as inconclusive: 39.8 µM [fluorescent, side channel, partial curve].
For `CCOC(=O)Cc1csc(Nc2c(C)n(C)n(-c3ccccc3)c2=O)n1`, the Potency was “inactive”.
For `CCOc1ccc(C(=O)NCC(=O)OCc2c(C)noc2C)cc1`, the Potency was inconclusive: 12.6 µM [inhibitor, single point].
`CN1CCN(c2ccc(NS(=O)(=O)c3ccc(Cl)cc3)cn2)CC1` was tested, and the Potency was inconclusive: 35.5 µM [fluorescent, side channel, partial curve].
With `CC(Oc1ccccc1)c1nnc(SCC(=O)NC2CC2)n1C` (centres undefined) the Potency was inconclusive: 1.12 µM [fluorescent, side channel, full curve, poor fit].
With `O=C1C=C(Nc2ccc(Cl)cc2)C(=O)N1c1ccc(Cl)cc1` the Potency was “inactive”.
For `CCC(C)c1ccc(NC(=O)Nc2cccnc2)cc1` (centres undefined), the Potency was inconclusive: 28.2 µM [inhibitor, partial curve].
`Cc1ccccc1C(=O)NCCCNC(=O)c1cnccn1` was tested, and the Potency was inconclusive: 35.5 µM [fluorescent, side channel, single point].
`O=C(O)CCCCCN1C(=O)/C(=C\c2cn(-c3ccccc3)nc2-c2cccs2)SC1=S` was tested, and the Potency was inconclusive: 50.1 µM [fluorescent, single point].
In the case of `CCOC(=O)C1=C(c2ccccc2)N=c2s/c(=C\c3ccco3)c(=O)n2C1c1cccs1` (centres undefined), the Potency is reported as inconclusive: 70.8 µM [fluorescent, side channel, single point].
For `O=c1c(C(c2ccc(O)cc2)c2c(O)nc3n(c2=O)CCCS3)c(O)nc2n1CCCS2`, the Potency was inconclusive: 25.1 µM [inhibitor, partial curve].
`COc1ccc(NC(=O)c2cc(-c3ccccn3)nc3c(C)cc(C)cc23)c(C)c1` was tested, and the Potency was inconclusive: 10 µM [fluorescent, side channel, partial curve].
`COc1ccc(/C=C\c2nc(=O)c3ccccc3o2)cc1` was tested, and the Potency was inconclusive: 39.8 µM [inhibitor, single point].
With `C[C@@H]1CN(C(=O)c2cc(COc3cccc(C(F)(F)F)c3)on2)C[C@H](C)O1` the Potency was inconclusive: 15.8 µM [fluorescent, side channel, single point].
In the case of `COc1cc(/C=C/C(=O)OCC(=O)Nc2cc(S(=O)(=O)N(C)C)ccc2Cl)ccc1O`, the Potency is reported as inconclusive: 35.5 µM [inhibitor, partial curve].
For `O=c1/c(=C\c2cc([N+](=O)[O-])cc([N+](=O)[O-])c2O)sc2nc3ccccc3n12`, the Potency was “inactive”.

From PubChem BioAssay AID2662 (National Center for Advancing Translational Sciences (NCATS), 2010)
Potency is read from the fitted curve at half-maximal effect.
